Values of other authors as cited in patent US20150133416A1, “Pharmaceutical Composition Comprising Abiraterone Acetate” (Jagotec AG, priority 2012, published 2015).
The name of at least one read-out is uncertain.

For `C[C@]12CC[C@H](O)CC1=CC[C@@H]1[C@@H]2CC[C@]2(C)C(c3cccnc3)=CC[C@@H]12` [abiraterone], the mucous membrane permeability is given as “poor”.
